From paper PMC11165425 come the findings set out here.

Protein sequences, listed by entry. Tags and fused reporters are not part of them.
UniProt Q8N3C0: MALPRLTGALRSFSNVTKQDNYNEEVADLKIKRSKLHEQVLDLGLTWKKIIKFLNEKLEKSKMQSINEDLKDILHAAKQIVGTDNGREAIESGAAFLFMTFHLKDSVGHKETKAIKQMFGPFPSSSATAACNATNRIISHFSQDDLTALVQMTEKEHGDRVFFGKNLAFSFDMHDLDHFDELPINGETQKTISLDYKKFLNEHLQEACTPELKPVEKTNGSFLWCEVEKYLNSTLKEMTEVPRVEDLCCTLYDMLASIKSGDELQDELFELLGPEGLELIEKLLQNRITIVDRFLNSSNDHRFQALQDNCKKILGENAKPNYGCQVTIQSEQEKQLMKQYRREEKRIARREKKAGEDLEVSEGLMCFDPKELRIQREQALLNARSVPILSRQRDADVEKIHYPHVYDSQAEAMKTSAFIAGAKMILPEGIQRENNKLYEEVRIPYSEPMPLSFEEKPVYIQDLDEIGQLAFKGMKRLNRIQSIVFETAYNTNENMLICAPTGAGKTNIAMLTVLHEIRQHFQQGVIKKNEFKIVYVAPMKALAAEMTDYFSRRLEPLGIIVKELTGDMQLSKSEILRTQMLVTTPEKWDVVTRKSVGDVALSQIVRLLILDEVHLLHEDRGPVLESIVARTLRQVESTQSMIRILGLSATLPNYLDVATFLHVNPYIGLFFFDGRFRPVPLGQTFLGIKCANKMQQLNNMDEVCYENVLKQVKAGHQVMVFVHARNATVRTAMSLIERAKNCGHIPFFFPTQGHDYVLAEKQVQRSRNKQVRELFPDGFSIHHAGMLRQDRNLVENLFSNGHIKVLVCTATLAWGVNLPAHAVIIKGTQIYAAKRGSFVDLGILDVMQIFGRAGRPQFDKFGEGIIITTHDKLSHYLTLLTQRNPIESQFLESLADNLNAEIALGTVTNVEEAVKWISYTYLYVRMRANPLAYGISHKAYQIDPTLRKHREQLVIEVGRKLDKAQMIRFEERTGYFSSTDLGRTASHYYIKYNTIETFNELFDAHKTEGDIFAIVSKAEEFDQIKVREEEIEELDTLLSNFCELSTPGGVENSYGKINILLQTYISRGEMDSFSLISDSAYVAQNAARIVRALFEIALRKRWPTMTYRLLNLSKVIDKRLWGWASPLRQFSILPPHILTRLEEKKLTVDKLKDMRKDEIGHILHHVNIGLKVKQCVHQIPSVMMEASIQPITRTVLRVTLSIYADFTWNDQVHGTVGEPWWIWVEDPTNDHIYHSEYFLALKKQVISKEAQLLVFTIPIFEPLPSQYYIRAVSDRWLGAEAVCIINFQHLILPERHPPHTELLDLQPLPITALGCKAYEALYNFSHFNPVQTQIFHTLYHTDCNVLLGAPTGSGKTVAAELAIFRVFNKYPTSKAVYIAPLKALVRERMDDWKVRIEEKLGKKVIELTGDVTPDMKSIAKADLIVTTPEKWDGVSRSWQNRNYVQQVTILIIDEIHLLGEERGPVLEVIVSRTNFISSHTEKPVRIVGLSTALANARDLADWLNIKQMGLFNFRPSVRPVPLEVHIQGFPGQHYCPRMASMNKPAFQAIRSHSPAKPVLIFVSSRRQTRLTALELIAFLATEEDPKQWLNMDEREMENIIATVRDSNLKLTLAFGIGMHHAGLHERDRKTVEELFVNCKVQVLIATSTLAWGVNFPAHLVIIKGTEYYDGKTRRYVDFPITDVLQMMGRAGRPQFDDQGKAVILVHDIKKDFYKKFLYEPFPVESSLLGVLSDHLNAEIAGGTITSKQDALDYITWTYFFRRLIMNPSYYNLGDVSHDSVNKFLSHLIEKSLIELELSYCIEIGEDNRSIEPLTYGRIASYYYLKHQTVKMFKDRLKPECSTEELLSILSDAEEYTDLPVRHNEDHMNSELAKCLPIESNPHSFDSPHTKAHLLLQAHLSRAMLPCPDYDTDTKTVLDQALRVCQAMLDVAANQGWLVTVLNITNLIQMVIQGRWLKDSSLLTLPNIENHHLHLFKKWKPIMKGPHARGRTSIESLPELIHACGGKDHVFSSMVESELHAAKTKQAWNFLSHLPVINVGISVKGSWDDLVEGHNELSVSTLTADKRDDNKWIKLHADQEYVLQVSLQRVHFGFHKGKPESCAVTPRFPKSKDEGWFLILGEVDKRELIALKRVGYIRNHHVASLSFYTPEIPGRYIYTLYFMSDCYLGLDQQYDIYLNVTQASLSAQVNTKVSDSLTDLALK
UniProt Q07065: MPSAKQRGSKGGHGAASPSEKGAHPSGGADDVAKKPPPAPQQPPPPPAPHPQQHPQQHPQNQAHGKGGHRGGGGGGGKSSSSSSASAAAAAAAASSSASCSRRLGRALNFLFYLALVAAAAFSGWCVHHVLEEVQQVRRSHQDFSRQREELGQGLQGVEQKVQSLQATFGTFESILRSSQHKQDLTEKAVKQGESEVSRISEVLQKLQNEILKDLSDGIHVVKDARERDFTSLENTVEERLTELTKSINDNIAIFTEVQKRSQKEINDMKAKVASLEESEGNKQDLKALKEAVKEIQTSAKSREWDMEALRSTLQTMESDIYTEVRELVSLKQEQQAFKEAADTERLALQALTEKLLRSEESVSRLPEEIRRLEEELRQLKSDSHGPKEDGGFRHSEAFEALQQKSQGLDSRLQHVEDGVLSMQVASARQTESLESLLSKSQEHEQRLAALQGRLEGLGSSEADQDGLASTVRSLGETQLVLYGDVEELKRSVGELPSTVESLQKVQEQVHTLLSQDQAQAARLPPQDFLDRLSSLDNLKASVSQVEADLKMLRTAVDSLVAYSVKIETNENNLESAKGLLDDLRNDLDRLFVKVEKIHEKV
UniProt Q7KZF4: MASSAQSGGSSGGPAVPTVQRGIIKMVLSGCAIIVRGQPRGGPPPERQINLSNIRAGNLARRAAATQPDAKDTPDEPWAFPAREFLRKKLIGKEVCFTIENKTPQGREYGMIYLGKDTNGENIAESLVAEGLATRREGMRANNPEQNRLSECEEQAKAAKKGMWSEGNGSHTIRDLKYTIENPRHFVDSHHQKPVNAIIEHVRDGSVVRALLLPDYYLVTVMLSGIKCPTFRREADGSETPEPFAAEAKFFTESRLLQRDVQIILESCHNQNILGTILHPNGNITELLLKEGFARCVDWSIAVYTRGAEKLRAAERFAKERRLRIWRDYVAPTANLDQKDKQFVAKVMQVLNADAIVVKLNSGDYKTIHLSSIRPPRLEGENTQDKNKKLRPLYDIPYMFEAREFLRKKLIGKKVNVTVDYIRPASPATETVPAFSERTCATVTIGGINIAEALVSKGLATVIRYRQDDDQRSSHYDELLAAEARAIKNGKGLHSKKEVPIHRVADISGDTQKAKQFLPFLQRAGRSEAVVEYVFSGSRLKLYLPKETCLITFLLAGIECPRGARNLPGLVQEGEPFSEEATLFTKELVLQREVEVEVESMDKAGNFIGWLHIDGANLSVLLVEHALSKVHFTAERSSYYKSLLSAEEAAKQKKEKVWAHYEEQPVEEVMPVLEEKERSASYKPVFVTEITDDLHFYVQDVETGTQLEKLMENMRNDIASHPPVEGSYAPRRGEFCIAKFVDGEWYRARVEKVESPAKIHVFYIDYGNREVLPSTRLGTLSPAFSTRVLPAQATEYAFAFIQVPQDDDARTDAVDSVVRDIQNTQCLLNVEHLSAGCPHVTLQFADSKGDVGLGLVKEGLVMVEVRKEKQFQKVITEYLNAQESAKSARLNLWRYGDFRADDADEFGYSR
UniProt P61011: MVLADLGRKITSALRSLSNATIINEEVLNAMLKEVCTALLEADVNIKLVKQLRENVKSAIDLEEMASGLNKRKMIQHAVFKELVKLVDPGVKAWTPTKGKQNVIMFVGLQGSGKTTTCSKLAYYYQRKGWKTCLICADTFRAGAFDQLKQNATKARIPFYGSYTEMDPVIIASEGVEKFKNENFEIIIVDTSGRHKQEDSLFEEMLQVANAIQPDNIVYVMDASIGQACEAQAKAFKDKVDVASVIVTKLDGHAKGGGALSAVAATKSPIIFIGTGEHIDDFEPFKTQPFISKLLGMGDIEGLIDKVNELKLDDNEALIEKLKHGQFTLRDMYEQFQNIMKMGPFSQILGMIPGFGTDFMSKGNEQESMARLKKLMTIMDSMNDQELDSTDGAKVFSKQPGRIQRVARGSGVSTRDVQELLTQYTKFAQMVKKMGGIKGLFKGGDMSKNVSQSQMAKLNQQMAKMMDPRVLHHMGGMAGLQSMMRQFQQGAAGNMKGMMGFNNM
UniProt O94822: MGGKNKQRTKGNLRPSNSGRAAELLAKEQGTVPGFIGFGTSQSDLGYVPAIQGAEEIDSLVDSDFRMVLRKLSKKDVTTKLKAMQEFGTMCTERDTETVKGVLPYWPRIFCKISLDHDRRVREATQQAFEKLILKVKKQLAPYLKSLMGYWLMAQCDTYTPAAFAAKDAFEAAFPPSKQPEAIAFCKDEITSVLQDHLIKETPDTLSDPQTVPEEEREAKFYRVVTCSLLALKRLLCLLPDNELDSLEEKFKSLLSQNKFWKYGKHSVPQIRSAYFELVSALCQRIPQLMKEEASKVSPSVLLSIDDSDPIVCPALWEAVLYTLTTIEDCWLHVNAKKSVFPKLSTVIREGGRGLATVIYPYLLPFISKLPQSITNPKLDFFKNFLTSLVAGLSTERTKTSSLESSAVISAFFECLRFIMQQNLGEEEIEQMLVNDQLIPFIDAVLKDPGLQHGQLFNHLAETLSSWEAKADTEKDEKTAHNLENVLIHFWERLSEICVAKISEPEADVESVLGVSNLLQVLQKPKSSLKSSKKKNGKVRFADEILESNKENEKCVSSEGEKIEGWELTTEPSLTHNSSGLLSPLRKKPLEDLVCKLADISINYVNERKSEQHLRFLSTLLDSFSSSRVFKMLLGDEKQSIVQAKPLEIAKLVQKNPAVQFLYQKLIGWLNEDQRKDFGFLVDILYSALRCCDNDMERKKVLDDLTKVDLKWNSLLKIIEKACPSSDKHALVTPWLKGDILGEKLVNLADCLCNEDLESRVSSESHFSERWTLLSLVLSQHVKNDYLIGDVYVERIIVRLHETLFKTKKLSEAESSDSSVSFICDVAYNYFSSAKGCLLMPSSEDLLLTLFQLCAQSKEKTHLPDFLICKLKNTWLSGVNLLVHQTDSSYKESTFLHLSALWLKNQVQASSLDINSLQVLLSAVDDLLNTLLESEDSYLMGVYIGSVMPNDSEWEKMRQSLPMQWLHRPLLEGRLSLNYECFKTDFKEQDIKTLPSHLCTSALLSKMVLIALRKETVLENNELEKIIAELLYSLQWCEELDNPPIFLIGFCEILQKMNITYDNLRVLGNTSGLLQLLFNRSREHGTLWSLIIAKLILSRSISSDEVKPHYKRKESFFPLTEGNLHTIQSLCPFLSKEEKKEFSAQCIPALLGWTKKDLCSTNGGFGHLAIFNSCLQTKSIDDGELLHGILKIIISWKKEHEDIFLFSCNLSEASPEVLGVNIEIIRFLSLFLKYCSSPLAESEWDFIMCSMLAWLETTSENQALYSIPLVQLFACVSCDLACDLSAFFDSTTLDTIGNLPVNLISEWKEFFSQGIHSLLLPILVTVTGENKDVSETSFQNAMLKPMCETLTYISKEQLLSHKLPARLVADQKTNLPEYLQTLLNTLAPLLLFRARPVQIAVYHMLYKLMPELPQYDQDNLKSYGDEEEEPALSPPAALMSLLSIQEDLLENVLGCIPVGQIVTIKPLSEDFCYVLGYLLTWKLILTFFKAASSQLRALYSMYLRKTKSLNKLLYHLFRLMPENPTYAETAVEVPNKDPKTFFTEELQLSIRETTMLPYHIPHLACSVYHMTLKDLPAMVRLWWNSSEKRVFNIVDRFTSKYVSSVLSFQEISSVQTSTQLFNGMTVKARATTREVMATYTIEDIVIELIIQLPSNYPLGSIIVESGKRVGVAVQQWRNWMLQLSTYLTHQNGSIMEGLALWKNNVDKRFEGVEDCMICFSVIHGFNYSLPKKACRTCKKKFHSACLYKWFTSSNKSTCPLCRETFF

Holding throughout (assay): affinity purification with mass spectrometry; IP-SILAC: GFP-Trap beads on whole-cell extracts of HEK293 Flp-In T-REx cells (GFP-SRP19, GFP-SRP9, GFP-SRP14) or U2OS Flp-In T-REx cells (GFP-SRP72) induced 3 h, against parental cells; HNT buffer (20 mM Hepes pH 7.4, 150 mM NaCl, 0.5% Triton X-100), 1.5 h at 4°C; positive: SILAC ratio above 1
Experiment [1] concerns the target T1, GFP-SRP72 (human) (UniProt O76094).
T1 sequence: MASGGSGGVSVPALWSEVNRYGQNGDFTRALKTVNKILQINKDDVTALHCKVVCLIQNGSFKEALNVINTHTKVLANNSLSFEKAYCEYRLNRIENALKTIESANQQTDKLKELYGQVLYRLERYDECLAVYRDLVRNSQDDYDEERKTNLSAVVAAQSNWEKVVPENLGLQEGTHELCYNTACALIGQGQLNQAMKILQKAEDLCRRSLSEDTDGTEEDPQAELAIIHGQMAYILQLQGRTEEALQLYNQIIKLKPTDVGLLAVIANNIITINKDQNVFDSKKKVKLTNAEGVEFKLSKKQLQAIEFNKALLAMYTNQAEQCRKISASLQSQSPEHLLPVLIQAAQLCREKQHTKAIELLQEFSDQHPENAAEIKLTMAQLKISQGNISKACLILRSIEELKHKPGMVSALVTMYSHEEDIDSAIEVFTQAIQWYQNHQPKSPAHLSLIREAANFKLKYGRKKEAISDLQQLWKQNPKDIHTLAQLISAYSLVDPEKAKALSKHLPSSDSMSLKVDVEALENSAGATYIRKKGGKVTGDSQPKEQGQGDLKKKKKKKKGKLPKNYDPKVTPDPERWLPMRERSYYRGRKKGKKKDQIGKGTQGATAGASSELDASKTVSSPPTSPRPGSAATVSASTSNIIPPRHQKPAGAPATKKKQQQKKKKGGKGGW

The target of experiment [2] is T2, GFP-SRP19 (human) (UniProt P09132).
T2 sequence: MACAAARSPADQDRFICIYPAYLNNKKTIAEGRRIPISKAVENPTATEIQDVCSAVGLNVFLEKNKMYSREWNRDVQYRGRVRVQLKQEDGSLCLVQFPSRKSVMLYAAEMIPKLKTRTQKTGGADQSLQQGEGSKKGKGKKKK

Experiment [3] deals with GFP-SRP14 (human) (UniProt P37108).
Experiment [4] concerns the target GFP-SRP9 (human) (UniProt P49458).

Results are given in words; binding and its absence hold for the method and conditions named. In cells and extracts the contact can be indirect. A yes stands for co-enrichment or nearness to the bait. Other partners may have been found. Where a sequence is shown, tags or fusion partners need not be part of it.

For ASCC3 (from UniProt Q8N3C0 1-2202), the binding entry in experiment [1], in experiment [2] and in experiment [3] was “binds” in each case.

Take CKAP4 (from UniProt Q07065 1-602): the binding result in experiment [1], in experiment [2], in experiment [4] and in experiment [3] was “binds” throughout.

With SND1 (from UniProt Q7KZF4 1-910), the binding entry in experiment [1] and in experiment [2] was “binds” throughout.

In the case of SRP54 (from UniProt P61011 1-504), the figures for the binding entry in experiment [2] and in experiment [4] were “binds” and “binds weakly”, respectively.

On to listerin (from UniProt O94822 1-1766), for which the binding entry in experiment [1], in experiment [2] and in experiment [3] was “binds” throughout.
